Laboratory results from publication PMC7033568.
These are yes or no findings as the source states them, for the method shown. Binding seen in cells or lysates may run through a third protein. Binding calls can cover weak binding; strength is not graded here. Tags and fused reporters may be left off the sequences shown.

Biological target: cSH2 domain of PIK3R1
Test: pull-down; GST pull-down; which partner was the GST fusion and the conditions are not stated

B1: LRRC4 (as used in the GST pull-down) (protein, UniProt Q9HBW1 39-653)
chain: ASAGPQNCPSVCSCSNQFSKVVCTRRGLSEVPQGIPSNTRYLNLMENNIQMIQADTFRHLHHLEVLQLGRNSIRQIEVGAFNGLASLNTLELFDNWLTVIPSGAFEYLSKLRELWLRNNPIESIPSYAFNRVPSLMRLDLGELKKLEYISEGAFEGLFNLKYLNLGMCNIKDMPNLTPLVGLEELEMSGNHFPEIRPGSFHGLSSLKKLWVMNSQVSLIERNAFDGLASLVELNLAHNNLSSLPHDLFTPLRYLVELHLHHNPWNCDCDILWLAWWLREYIPTNSTCCGRCHAPMHMRGRYLVEVDQASFQCSAPFIMDAPRDLNISEGRMAELKCRTPPMSSVKWLLPNGTVLSHASRHPRISVLNDGTLNFSHVLLSDTGVYTCMVTNVAGNSNASAYLNVSTAELNTSNYSFFTTVTVETTEISPEDTTRKYKPVPTTSTGYQPAYTTSTTVLIQTTRVPKQVAVPATDTTDKMQTSLDEVMKTTKIIIGCFVAVTLLAAAMLIVFYKLRKRHQQRSTVTAARTVEIIQVDEDIPAATSAAATAAPSGVSGEGAVVLPTIHDHINYNTYKPAHGAHWTENSLGNSLHPTVTTISEPYIIQTHTKDKVQETQI
- binding: binds
